Results reported in publication PMC9408963 (International Journal of Molecular Sciences, 2022).

System: XooFtsZ
Assay type: binding, Xanthomonas oryzae pv. oryzae
Settings: pH 7.4

SMILES	Binding parameter n (10 μM XooFtsZ, 25 °C)	Binding parameter n
COc1cc([C@@H]2c3cc4c(cc3C[C@H]3COC(=O)[C@@H]32)OCO4)cc(OC)c1OC [Deoxypodophyllotoxin]	0.48	–
COc1cc([C@@H]2c3cc4c(cc3[C@@H](O)[C@H]3COC(=O)[C@H]23)OCO4)cc(OC)c1O [DMEP, 4′-demethylepipodophyllotoxin]	–	0.92
COc1cc([C@@H]2c3cc4c(cc3[C@@H](O[C@@H]3O[C@@H]5CO[C@@H](C)O[C@H]5[C@H](O)[C@H]3O)[C@H]3COC(=O)[C@H]23)OCO4)cc(OC)c1O [Etoposide]	0.82	–
COc1cc([C@@H]2c3cc4c(cc3[C@H](O)[C@H]3COC(=O)[C@@H]23)OCO4)cc(OC)c1OC [Picropodophyllotoxin]	–	0.63
COc1cc(C2c3cc4c(cc3C(O)C3COC(=O)C23)OCO4)cc(OC)c1O (stereo not drawn) [DMEOP, 4′-demethylpodophyllotoxin]	–	0.79
COc1cc([C@@H]2c3cc4c(cc3[C@H](O)[C@H]3COC(=O)[C@H]23)OCO4)cc(OC)c1OC [Podophyllotoxin]	–	0.54
COc1cc([C@@H]2c3cc4c(cc3[C@@H](O[C@@H]3O[C@@H]5CO[C@@H](c6cccs6)O[C@H]5[C@H](O)[C@H]3O)[C@H]3COC(=O)[C@H]23)OCO4)cc(OC)c1O [Teniposide]	0.61	–
COc1ccc2cc3[n+](cc2c1OC)CCc1cc2c(cc1-3)OCO2 [Berberine, Berberine hydrochloride]	0.81	–
CCCCC(CC)C(=O)Oc1c(OC)cc(C2c3cc4c(cc3C(O)C3COC(=O)C23)OCO4)cc1OC (stereo not drawn) [B2]	0.92	–

Counter-ions that a name gives are not always drawn. Like-named read-outs stand apart in the source and are kept apart here.
